Measured values: patent publication US20060110804A1, “Method of treating an organ for transplantation” (priority 2004, published 2006)
For at least one compound, name, drawing or mass did not settle the structure.

Tests used:
liver grafts [1] = assay: Bile output of cold-preserved liver grafts during ex vivo reperfusion; parameters: species or system rat; conditions: for percentage of bile output relative to reperfusion in the absence of ZnPP: 30 minute reperfusion
liver grafts [2] = assay: Bile salts and phospholipids in bile of ex vivo reperfused liver grafts (enzyme inhibition assay); parameters: species or system rat; conditions: hemin-treated C16 grafts, 30 minute reperfusion
Protocol: To examine whether bilirubin and/or CO could recover the HO-1-inducing effect inhibited by ZnPP, a strong HO activity inhibitor, the following experiment was carried out. The grafts were reperfused with carbogen-saturated Krebs-Henseleit buffer (pH 7.4, 37° C.) supplemented with bilirubin (Sigma Chemical, Co.) and/or CO in combination with 1 μmol/L ZnPP. In relation to the concentration of bilirubin, based on the data showing that the plasma bilirubin concentration in portal blood samples collected from hemin-treated rats was 3.2±0.8 μmol/L (n=4) and the plasma bilirubin concentration in control rats was 1.0 μmol/L or less (see Document 29), the physiologically relevant concentration of bilirubin in hemin-treated livers was estimated to be about 5 μmol/L. In the presence of ZnPP, the grafts receiving 16-hour cold preservation were co-perfused for 30 minutes with the following: (c) no bilirubin and no CO, (d) 5 μmol/L bilirubin, (e) 5 μmol/L CO, or (f) 5 μmol/L bilirubin and 5 μmol/L CO, followed by measuring the levels of (A) bile output, (B) bile salts in bile, and (C) phospholipids in bile secreted from the grafts. Similarly, hemin-untreated (a) and hemin-treated (b) grafts were provided in the absence of ZnPP for use as controls. The total amounts of bile salts and phospholipids in bile samples were measured by enzyme inhibition assay according to a reported method (see Document 23).
An attempt was made to examine dose-dependent effects of bilirubin and/or CO during co-perfusion. The same experiment as described in Example 4 was repeated, except that the doses of bilirubin and/or CO were varied. After being cold-preserved for 16 hours, the hemin-treated grafts were reperfused for 30 minutes in the presence of ZnPP using reperfusate containing various concentrations of bilirubin and/or CO, and then measured for the levels of bile output, bile salts and phospholipids in bile from the grafts, which were determined in percentages relative to those obtained by reperfusion in the absence of ZnPP.

liver grafts [3] = assay: LDH released into hepatic venous perfusate of ex vivo reperfused liver grafts (liver cell damage); parameters: species or system rat; conditions: hemin-treated C16 grafts, ZnPP
Protocol: As in the case of Example 5, after being cold-preserved for 16 hours, the hemin-treated grafts were reperfused for 30 minutes in the presence of ZnPP using reperfusate containing varying concentrations of bilirubin, and then measured for the amount of lactate dehydrogenase (LDH) released into the hepatic venous perfusate, which was indicative of liver cell damage in the grafts. For use as controls, hemin-untreated grafts receiving 16-hour cold preservation (C16) and hemin-treated grafts receiving 16-hour cold preservation (Hemin/C16) were provided in the absence of ZnPP. The amount of LDH was measured as described in an earlier document (see Document 24). […] The grafts were divided into the following test groups: (a) receiving 5 minute reperfusion with the bilirubin-containing buffer and subsequent 35 minute reperfusion in the absence of bilirubin, (b) receiving 15 minute reperfusion with the bilirubin-containing buffer and subsequent 25 minute reperfusion in the absence of bilirubin, and (c) receiving 40 minute perfusion with the bilirubin-containing buffer. As a control group (d), the cold-preserved grafts received only bilirubin-free perfusion for 40 minutes. Bile output was then measured over time for each group. Further, FIGS. 6(B) and (C) show the relationship between reperfusion time with the bilirubin-containing buffer and bile output from the grafts and the relationship between reperfusion time and venous LDH concentration, respectively.

liver grafts [4] = assay: Liver isograft transplantation model: bile output after initiation of reperfusion; assay type: in vivo, rat
Protocol: (§1) To examine in vivo effects of HO-1 preconditioning, a model experiment for liver isograft transplantation was carried out. Male inbred Lewis rats of 220-280 g were allowed to drink water without any restriction, fasted for 24 hours before the experiment, and provided for use as donors and recipients for liver transplantation. In HO-1 preconditioning groups, the rats were hemin-treated at 18 hours before graft preparation in the same manner as used in the ex vivo experiment of Example 1. Liver transplantation was performed according to the technique developed by Kamada (see Document 25) with minor modifications. More specifically, the donors were anesthetized by intraperitoneal injection of pentobarbital sodium (40 mg/kg body weight) and then laparotomized. […]
(§2) In light of Example 7 showing that short-term washing with bilirubin was effective for recovery of post-reperfusion stasis and cell injury in the liver grafts cold-preserved for 16 hours, further attempts were made to examine the in vivo effect of bilirubin washing against post-transplantation injury in the cold-preserved grafts. […] The level of bile output was measured at 30 minutes and 24 hours after initiation of reperfusion. To determine the degree of graft injury at 24 hours after initiation of reperfusion, blood levels of aspartate aminotransferase (AST), alanine aminotransferase (ALT) and LDH were measured in a standard manner. […]

liver grafts [5] = assay: Liver isograft transplantation model: blood levels of AST, ALT and LDH (graft injury); assay type: in vivo, rat; conditions: graft washing at a bilirubin concentration of 5 to 10 μmol/L, PPF(-)
Protocol: as §1, §2

[6] = concentration of 5 μmol/L or less
[7] = concentration of 5 μmol/L or more

C=CC1=C(C)/C(=C/c2[nH]c(Cc3[nH]c(/C=C4\NC(=O)C(C)=C4C=C)c(C)c3CCC(=O)O)c(CCC(=O)O)c2C)NC1=O [bilirubin]
recovery of ZnPP-induced reduction of bile output (liver grafts [1]; hemin-treated C16 grafts, 30 minute co-perfusion, 1 μmol/L ZnPP, 5 μmol/L of each test substance): recovered
percentage of bile output relative to reperfusion in the absence of ZnPP (liver grafts [1]; hemin-treated C16 grafts, concentration of 5 μmol/L or less): significantly recovered
percentage of bile output relative to reperfusion in the absence of ZnPP (liver grafts [1]; hemin-treated C16 grafts, concentration of 5 μmol/L or more): reduced
bile output vs bilirubin-free control (liver grafts [1]; hemin-untreated C16 grafts, 5 μmol/L bilirubin, 5 minute reperfusion then 35 minutes without bilirubin): significant improvement
percentage of bile salts in bile relative to reperfusion in the absence of ZnPP (liver grafts [2]; [6]): significantly recovered
percentage of phospholipids in bile relative to reperfusion in the absence of ZnPP (liver grafts [2]; [6]): significantly recovered
percentage of bile salts in bile relative to reperfusion in the absence of ZnPP (liver grafts [2]; [7]): reduced
percentage of phospholipids in bile relative to reperfusion in the absence of ZnPP (liver grafts [2]; [7]): reduced
risk of cell damage (LDH release) (liver grafts [3]; 10 μmol/L bilirubin): not improved
bilirubin concentration at which LDH release reached a minimum (liver grafts [3]; 30 minute reperfusion): 5 µmol/L
amount of LDH release (liver grafts [3]; bilirubin concentration in reperfusate up to 5 μmol/L): decreased
bile output at 30 minutes and 24 hours after initiation of reperfusion (liver grafts [4]; 10 μmol/L bilirubin-containing irrigation solution in the presence of PPF, open circulation): did not contribute to the increases in bile output
bile output after transplantation (liver grafts [4]; grafts washed with 5 to 10 μmol/L bilirubin-containing Ringer's solution, PPF(-)): significantly improved to the same level as hemin treatment
cell injury (sAST, sALT, sLDH) at 24 hours after transplantation (liver grafts [5]): reduction of cell injury to the same level as hemin treatment
